# Assay results from US20250154121A1, “CYCLIC(ALKYL)(AMINO)ALKOXY-SUBSTITUTED ARYL-PYRONE COMPOUND AND USE THEREOF” (priority 2022, published 2025).
# At least one structure is not confirmed: it was looked up by name or label, or the drawing left a doubt.
# Assays:
# [1] = system: IFN-β and TNF-α in lung tissue; assay type: in vivo, mice; conditions: after 4 days of administration, vs model control group p<0.01
# [2] = system: ACE2-293T cells; assay: Intracellular Ca2+ flow change detection in ACE2-293T cells; assay type: cell-based; conditions: at 10 µg/mL; Fluo-3 fluorescence
smiles,measurement,setting,value
O=c1c(-c2ccccc2)coc2cc(OCCNC3CC3)ccc12 [Compound 4],IFN-β content in lung tissue,[1]; FIG. 4,significantly reduced
same,TNF-α content in lung tissue,[1]; FIG. 5,significantly reduced
same,calcium mobilization in ACE2-293T cells,[2],stimulates calcium mobilization
